Experimental data as given in the supplement of paper PMC8104966.
Some of the results follow. This data set is noisy: repeats of one test often differ as much as different tests do.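 Fusion between ACE2-bearing and full-length-spike-bearing U2OS cells was measured by imaging as the percentage of nuclei with both cell types' fluorescent markers. An inhibitory hit is a non-toxic compound whose fusion z-score is below -3, more than three standard deviations beneath the plate's DMSO wells.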

The compounds below were run on U2OS ACE2 x SARS-CoV-2 spike co-culture (assay: cell-cell fusion (fraction fused) z-score vs plate DMSO control; higher = more fusion). Details: 30 µM; 5 h; toxicity class: non-toxic, passed QC.

Structure (SMILES) | cell-cell fusion (z-score)
CCc1ccc(CCOc2ccc(CC3SC(=O)NC3=O)cc2)nc1 (configuration not stated) [Pioglitazone (Actos)] | inactive: 1.13
CC(=O)O[C@@]1(C(C)=O)CC[C@H]2[C@@H]3C[C@H](C)C4=CC(=O)CC[C@]4(C)[C@@H]3CC[C@@]21C [Medroxyprogesterone acetate] | inactive: 0.581
C[C@]12CC[C@H](O)CC1=CC[C@@H]1[C@H]2CC[C@]2(C)C(c3cccnc3)=CC[C@@H]12 [Abiraterone (CB-7598)] | inactive: 2.12
CC(C)CCCC(C)C1CCC2C3CC[C@H]4CC(=O)CC[C@]4(C)C3CC[C@]12C (some centres not stated) | inactive: 1.79
CC(C)c1ccc(COC(=O)N2CCC[C@@H](c3cccc(OC(C)(C)C(=O)O)c3)C2)cc1 | inactive: 3.43
C[C@@]1(c2nc3c(C(N)=O)cccc3[nH]2)CCCN1 [ABT-888 (Veliparib)] | inactive: 1.51
COc1cc2c(N3CCN(C(=O)Nc4ccc(OC(C)C)cc4)CC3)ncnc2cc1OCCCN1CCCCC1 [Tandutinib (MLN518)] | inactive: 3.05
Nc1nc2c(ncn2COC(CO)CO)c(=O)[nH]1 | inactive: 1.3
Nc1nc2c(ncn2COC(CO)CO)c(=O)[nH]1 [Ganciclovir] | inactive: 3.29
OC[C@H]1O[C@@H](O[C@@H]2[C@@H](CO)O[C@](O)(CO)[C@H]2O)[C@H](O)[C@@H](O)[C@H]1O | inactive: 0.0812
COc1ccc2[nH]cc(CCNC(C)=O)c2c1 | inactive: 2.42
COc1ccc2[nH]cc(CCNC(C)=O)c2c1 [Melatonin] | inactive: 2.32
CNCCC(Oc1ccc(C(F)(F)F)cc1)c1ccccc1.Cl (configuration not stated) [Fluoxetine hydrochloride] | active: -4.6
Cl.NCCNS(=O)(=O)c1cccc2c(Cl)cccc12 [A3 hydrochloride] | inactive: -0.863
COc1c2occc2c(OC)c2c(=O)cc(C)oc12 | inactive: 1.52
CC1=C2C(=CO[C@H](C)[C@H]2C)C(O)=C(C(=O)O)C1=O | inactive: 2.17
CN(C)c1nc(N(C)C)nc(N(C)C)n1 [Altretamine] | inactive: 2.52
OCCN(CCO)c1nc(N2CCCCC2)c2nc(N(CCO)CCO)nc(N3CCCCC3)c2n1 [Dypyridamole] | inactive: 2.18
O=C(Oc1ccc([N+](=O)[O-])cc1)N1CCC(C(O)(c2ccc3c(c2)OCO3)c2ccc3c(c2)OCO3)CC1 | inactive: 2.55
CCc1ccc2c(O)c3c(cc2c1C(=O)OC)C(=O)c1c(O)ccc(O)c1C3=O | inactive: 2.2
CC(NCCc1ccc(O)cc1)C(O)c1ccc(O)cc1.Cl (configuration not stated) | inactive: -0.441
Cl.NCCc1c[nH]c2ccccc12 [Tryptamine hydrochloride] | inactive: 1.49
C=CC[N+]1([C@H]2C[C@H]3[C@@H]4CC[C@H]5C[C@H](O)[C@@H](N6CCOCC6)C[C@]5(C)[C@H]4CC[C@]3(C)[C@H]2OC(C)=O)CCCC1.[Br-] [Rocuronium bromide] | inactive: 2.71
O=c1onc2cnc3ccccc3n12 | inactive: 3.35
Nc1cccc2c1C(=O)N(C1CCC(=O)NC1=O)C2=O (configuration not stated) [Pomalidomide] | inactive: 1.38
C[C@@H]1O[C@@H](O[C@H]2[C@H](Oc3cc(O)c4c(=O)cc(-c5ccc(O)cc5)oc4c3)O[C@H](CO)[C@@H](O)[C@@H]2O)[C@H](O)[C@H](O)[C@H]1O | inactive: 1.6

Some of the entries so far, as comma-separated lines:
Structure (SMILES),cell-cell fusion (z-score)
CC(C)c1ccc(COC(=O)N2CCC[C@@H](c3cccc(OC(C)(C)C(=O)O)c3)C2)cc1,inactive: 3.43
C[C@@]1(c2nc3c(C(N)=O)cccc3[nH]2)CCCN1 [ABT-888 (Veliparib)],inactive: 1.51

Further records follow.

Structure (SMILES) | cell-cell fusion (z-score)
Cc1ccc(C(=O)N(CCCN)[C@@H](c2nc3cc(Cl)ccc3c(=O)n2Cc2ccccc2)C(C)C)cc1 | active: -3.16
Cn1c(=O)c2c(ncn2C)n(C)c1=O | inactive: 1.19
Cn1c(=O)c2c(ncn2C)n(C)c1=O [Caffeine] | inactive: 1.16
C=C(C)[C@H]1Cc2c(ccc3c2O[C@@H]2COc4cc(OC)c(OC)cc4[C@@H]2C3=O)O1 [Rotenone] | inactive: -0.311
NNC(=O)c1ccncc1 [Isoniazid] | inactive: 2.33
CC(C)c1nc(CN(C)C(=O)N[C@H](C(=O)N[C@@H](Cc2ccccc2)C[C@H](O)[C@H](Cc2ccccc2)NC(=O)OCc2cncs2)C(C)C)cs1 [Ritonavir] | inactive: 3.5
O=c1c(O)c(-c2ccc(O)c(O)c2)oc2c(O)c(O)cc(O)c12 | inactive: 1.55
NC[C@H](O)c1ccc(O)c(O)c1 | inactive: -0.495
O=C(N[C@@H](Cc1ccccc1)C(=O)CCl)OCc1ccccc1 [Z-L-Phe chloromethyl ketone] | inactive: 1.57
CC(=O)CC1CCCCN1.Cl (configuration not stated) | inactive: 1.98
O.O=C(O)[C@@H]1[C@H]2C[C@H]3c4[nH]c5ccccc5c4CCN3C[C@@H]2CC[C@@H]1O | inactive: 2.53
Cl.NCCCCC(=O)O [5-Aminovaleric acid hydrochloride] | inactive: 1.93
Cl.NCCCCC(=O)O | inactive: 3.48
CC1=C(/C=C/C(C)=C/C=C/C(C)=C/C=C/C=C(C)/C=C/C=C(C)/C=C/C2=C(C)CCCC2(C)C)C(C)(C)CCC1 [Beta-Carotene] | inactive: 2.58
N=C(N)NN.N=C(N)NN.O=S(=O)(O)O [Aminoguanidine hemisulfate] | inactive: 1.55
Nc1nc(F)nc2c1ncn2[C@@H]1O[C@H](COP(=O)(O)O)[C@@H](O)[C@@H]1O | inactive: 4.18
CC(C)NCC(O)c1cc(O)cc(O)c1.CC(C)NCC(O)c1cc(O)cc(O)c1.O=S(=O)(O)O (configuration not stated) [Orciprenaline sulfate] | inactive: -0.423
COP(=O)(OC)C(O)C(Cl)(Cl)Cl (configuration not stated) | inactive: 1.49
COc1ccc2oc(-c3ccccc3OC)cc(=O)c2c1 | inactive: 2.9
Cl.NCC1(CC(=O)O)CCCCC1 [Gabapentin HCl] | inactive: 1.9
[NH2][Pt]([NH2])([Cl])[Cl] [Cisplatin] | inactive: 1.87
NCC(=O)O [glycine] | inactive: 1.31
CS(=O)(=O)c1ccc([C@@H](O)[C@@H](CO)NC(=O)C(Cl)Cl)cc1 | inactive: 2.66
CCCCCC(C)N.O=S(=O)(O)O (configuration not stated) | inactive: 2.72
O=C(O)C(O)C(O)C(=O)O.OCc1cccnc1 (configuration not stated) | inactive: 1.43
[Cl-].[NH2][Pt]([NH2])([Cl])[n+]1ccccc1 | inactive: 2.16

Structure (SMILES) | cell-cell fusion (z-score)
CCCCCc1ccc(/C=C/[C@H](O)[C@@H](CO)NC)cc1.Cl | inactive: 0.598
O=C1OC(CN2CCOCC2)CN1/N=C/c1ccc([N+](=O)[O-])o1 (configuration not stated) | inactive: 0.449
CC(Oc1ccc(Cl)cc1Cl)C(=O)O (configuration not stated) | inactive: 4.42
Clc1ccc(CCC(Cn2ccnc2)Sc2c(Cl)cccc2Cl)cc1 (configuration not stated) | inactive: 2.53
CCc1cc(Cl)c(OC)c(C(=O)NCC2CCCN2CC)c1O.Cl (configuration not stated) | inactive: -1.16
Cn1cncc1[C@@](N)(c1ccc(Cl)cc1)c1ccc2c(c1)c(-c1cccc(Cl)c1)cc(=O)n2C [Tipifarnib (Zarnestra)] | inactive: 0.77
COc1ccccc1O | inactive: 1.38
CC/C(=C(/CC)c1ccc(O)cc1)c1ccc(O)cc1 [Diethylstilbestrol] | inactive: -1.55
C[N+](C)(C)CC=O.[Cl-] [Betaine aldehyde chloride] | inactive: 2.02
CC(C)=CCOc1cc2oc(=O)ccc2cc1O | inactive: 1.65
N[C@H]1CONC1=O [L-Cycloserine] | inactive: 2.13
N#Cc1c(O)c2c(-c3ccc(-c4ccccc4O)cc3)csc2[nH]c1=O | inactive: 0.722
COc1ccc([C@H]2Oc3cc(OC)cc(OC)c3C[C@H]2O)cc1 | inactive: 1.29
O=C(NOC[C@H](O)CO)c1ccc(F)c(F)c1Nc1ccc(I)cc1F | inactive: 2.8
C[C@]12C=CC(=O)C=C1CCC1C2[C@@H](O)C[C@@]2(C)C1CC[C@]2(O)C(=O)CO (some centres not stated) | inactive: -0.134
CC[C@@]1(O)C(=O)OCc2c1cc1n(c2=O)Cc2cc3c(CN(C)C)c(O)ccc3nc2-1.Cl [Topotecan hydrochloride] | inactive: 4.03
COc1cc2nccc(Oc3ccc(NC(=O)Nc4ccc(F)cc4F)c(F)c3)c2cc1OC | inactive: 2.21
C/C=C(/C(=C/C)c1ccc(O)cc1)c1ccc(O)cc1 | inactive: 2.03
O=C(CCSCc1ccco1)NNC(=O)N1Cc2ccccc2Oc2ccc(Cl)cc21 | inactive: -0.828
C[C@]12CC[C@H]3c4ccc(O)cc4CC[C@H]3[C@@H]1CCC2=O [Estrone] | inactive: 1.53
CC(C)n1nccc1-c1ncccc1COc1cccc(O)c1C=O [voxelotor] | active: -3.02
O=C(O)c1cc([N+](=O)[O-])ccc1NCCCc1ccccc1 [5-Nitro-2-(3-phenylpropylamino)benzoic acid] | inactive: 3.37
C[C@@H]1CCC2[C@](C)(CO)[C@@H](O)CC[C@]2(C)[C@@]12CC[C@@](CO)(CCO)O2 (some centres not stated) | inactive: 1.37
NCC(=O)[O-].NCC(=O)[O-].[Fe+2] [Ferrous Bisglycinate] | inactive: 3.48
COP(=O)(OC)OC=C(Cl)Cl | inactive: 2.75

A stretch from further up:
Structure (SMILES) | cell-cell fusion (z-score)
CCc1cc(Cl)c(OC)c(C(=O)NCC2CCCN2CC)c1O.Cl (configuration not stated) | inactive: -1.16
Cn1cncc1[C@@](N)(c1ccc(Cl)cc1)c1ccc2c(c1)c(-c1cccc(Cl)c1)cc(=O)n2C [Tipifarnib (Zarnestra)] | inactive: 0.77
